Experimental data reported in patent US20250051474A1, “ANTI-CD97 ANTIBODIES AND ANTIBODY-DRUG CONJUGATES” (New York University, priority 2023, published 2025).

B1: 2V10: anti-CD97 antibody clone, VL SEQ ID NO: 63, VH SEQ ID NO: 64 (antibody, V domains shown)
VH: EVQLVESGGGLVQPGGSLRLSCAASGFTISSSSIHWVRQAPGKGLEWVAYIYPSSGSTSYADSVKGRFTISADTSKNTAYLQMNSLRAEDTAVYYCARPWYYSTFNKKWWDYQGLDYWGQGTLVTVSS
VL: DIQMTQSPSSLSASVGDRVTITCRASQSVSSAVAWYQQKPGKAPKLLIYSASSLYSGVPSRFSGSRSGTDFTLTISSLQPEDFATYYCQQSWWDPITFGQGTKVEIKRTV
B2: C27: anti-CD97 antibody clone, VL SEQ ID NO: 21, VH SEQ ID NO: 46 (antibody, V domains shown)
VH: EVQLVESGGGLVQPGGSLRLSCAASGFTLSSSSIHWVRQAPGKGLEWVASIYSYYGSTYYADSVKGRFTISADTSKNTAYLQMNSLRAEDTAVYYCARYRGNMYYWESWYGSYWALDYWGQGTLVTVSS
VL: B1 VL with W92S, W93S, D94S, P95L

System: truncation mutants of CD97
Test: Epitope mapping using ExpiCHO cells expressing truncation mutants of CD97
Assay type: binding, human
Conditions: IgG1 LALA-PG, EGF-like domains deleted from the N-terminus

Row | Molecule | epitope (CD97 domain bound)
1 | B1 | EGF1
2 | B2 | EGF3

Where a chain is given by its changes, count along the chain named.
